PubChem BioAssay AID504764 | Drosophila RNAi Screening Center, 2011
In all, the deposit lists about 22,000 reagents; shown is an unselected part of those that have a named target and a result. Of all reagents, 403 (1.9%) are marked active. 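Unnormalised raw counts per well; ratio z-scores behind the hit calls and whether each hit raises or lowers signal are not deposited.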 Names joined by + are all predicted targets of the reagent. No sequences are given here. Not stated in the record: the amount of reagent.

Screen: 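Genome-wide screen for regulators of Notch-driven gene expression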 (primary screen)
Cell system: Drosophila Kc167 cells
Knock-down reagent: long dsRNA against Drosophila genes
Timing: about 5 days (4 days dsRNA, then 24 h after transfection)
Treatment: transfection of constitutively active membrane-tethered Notch lacking the extracellular domain, read 24 h later
Measured: 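Light from a Notch-responsive E(spl)m3 luciferase reporter under active Notch, with control-promoter and no-Notch reporter wells to normalise; raw counts from paired wells a and b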
Scale: induced reporter light, run 1, well a and induced reporter light, run 1, well b: higher = more light from the Notch target reporter with active Notch; control promoter light, run 1, well a and control promoter light, run 1, well b: higher = more light from the viral control promoter (cell number, transfection, viability); uninduced reporter light, run 1, well a: higher = more light from the Notch target reporter without active Notch
Active means: 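Wells with low control signal or poorly matching duplicates excluded; duplicates averaged; per source plate, z beyond ±2 for induced/control log2 ratio or beyond ±1.8 for induced/uninduced marks a hit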
Calls: active = modifier hit (raised or lowered Notch signal); inactive = not a hit

Gene | amplicon | induced reporter light, run 1, well a | induced reporter light, run 1, well b | control promoter light, run 1, well a | control promoter light, run 1, well b | uninduced reporter light, run 1, well a | Call
Ns2 | DRSC06993 | 1.06e5 | 1.10e5 | 1.82e5 | 2.00e5 | 9550 | inactive
CG31676 | DRSC02387 | 63125 | 51180 | 64225 | 46400 | 2865 | inactive
WDR79 | DRSC03159 | 53950 | 59050 | 68580 | 80245 | 4950 | inactive
CG5281 | DRSC15761 | 87840 | 68135 | 56030 | 50965 | 5210 | inactive
CG34251 | DRSC09498 | 1.68e5 | 1.86e5 | 2.06e5 | 2.08e5 | 19695 | inactive
CG34251 | DRSC09500 | 2.14e5 | 1.92e5 | 2.43e5 | 2.69e5 | 16175 | inactive
pea | DRSC07120 | 90775 | 1.08e5 | 1.07e5 | 96830 | 8700 | inactive
robl | DRSC07674 | 1.29e5 | 1.39e5 | 1.79e5 | 1.19e5 | 11075 | inactive
CG12869 | DRSC06208 | 90660 | 1.16e5 | 1.57e5 | 1.34e5 | 8805 | inactive
CG15404 | DRSC00418 | 1.47e5 | 1.15e5 | 1.54e5 | 1.58e5 | 8135 | inactive
fzo | DRSC16954 | 1.59e5 | 1.55e5 | 2.14e5 | 2.21e5 | 14770 | inactive
mAcon2 | DRSC15629 | 72140 | 81935 | 80825 | 78185 | 4735 | inactive
CG32512 | DRSC20519 | 1.11e5 | 90215 | 99945 | 1.33e5 | 10035 | inactive
CG32512 | DRSC20551 | 56745 | 40640 | 54400 | 52410 | 7230 | inactive
CG6813 | DRSC16122 | 89035 | 96540 | 74400 | 56950 | 6060 | inactive
Hsc70-2 | DRSC16710 | 2.18e5 | 2.40e5 | 1.94e5 | 1.72e5 | 18032 | inactive
Sik2 | DRSC18522 | 1.41e5 | 1.41e5 | 2.15e5 | 2.48e5 | 10265 | inactive
CG11617 | DRSC00321 | 49860 | 44465 | 40365 | 23040 | 5635 | inactive
CG11617 | DRSC21786 | – | – | – | – | – | inactive
CG4456 + Hsp22 | DRSC11187 | 2.07e5 | 1.31e5 | 2.37e5 | 1.83e5 | 9175 | inactive
CG4456 + Hsp22 | DRSC11192 | 95460 | 93460 | 73080 | 24265 | 9390 | inactive
Hr78 | DRSC11866 | 1.57e5 | 1.55e5 | 55330 | 69925 | 10138 | inactive
Poxn | DRSC05589 | 1.76e5 | 1.72e5 | 2.22e5 | 2.39e5 | 16315 | inactive
Poxn | DRSC07512 | 96540 | 1.21e5 | 1.44e5 | 1.72e5 | 10210 | inactive
CG34030 | DRSC08866 | 1.57e5 | 1.62e5 | 1.93e5 | 2.17e5 | 11380 | inactive
CG3649 | DRSC04400 | 2.30e5 | 1.81e5 | 1.79e5 | 1.88e5 | 11935 | inactive
CG14327 | DRSC14806 | 1.95e5 | 2.00e5 | 1.98e5 | 2.35e5 | 19285 | inactive
Zcchc7 | DRSC11099 | 96920 | 92300 | 65320 | 68880 | 8225 | inactive
Duba | DRSC10582 | 1.02e5 | 1.08e5 | 80310 | 41635 | 11005 | inactive
ACOX1 | DRSC05941 | 92180 | 93670 | 1.41e5 | 1.88e5 | 7780 | inactive
CG3062 | DRSC18572 | 1.19e5 | 1.18e5 | 2.28e5 | 2.88e5 | 11645 | inactive
CNMaR | DRSC08992 | 76350 | 97120 | 1.67e5 | 1.66e5 | 7665 | active
CNMaR | DRSC10224 | 1.53e5 | 1.44e5 | 2.16e5 | 1.58e5 | 5980 | inactive
RagA-B | DRSC14450 | 75635 | 77205 | 66205 | 59270 | 5775 | inactive

A few values from the entries so far.
Under “control promoter light, run 1, well a”, CG34030 [DRSC08866] is entered as 1.93e5
For “control promoter light, run 1, well a”, CNMaR [DRSC08992] reads 1.67e5
